{
  "source": "paper PMC9456514",
  "about": "“Three-Dimensional Envelope and Subunit Interactions of the Plastid-Encoded RNA Polymerase from Sinapis alba” (International Journal of Molecular Sciences, 2022)",
  "binders": {"B1": {"name": "β’ subunit of the plastid-encoded RNA polymerase (SaRpoC1) (protein, UniProt P46819 1-688)", "chain": "MIDRYKHQQLRIGLVSPQQISAWATKKIPNGEIVGEVTKPYTFHYKTNKPEKDGLFCERIFGPIKSGICACGNYRVIGDEKGDPKFCEQCGVEFVDSRIRRYQMGYIKLTCPVTHVWYLKRLPSYIANLLDKPLKELEGLVYCDVCFDRNPNFSFARPITKKPTFLRLRGSFEYEIQSWKYSIPLFFTTQGFEIFRNREISTGAGAIREQLADLDLRIIIENSLVEWKQLGEEGPTGNEWEDRKIVRRKDFLVRRMELAKHFIRTNIEPEWMVLCLLPVLPPELRPIIQIEGGKLMSSDINELYRRVIYRNNTLTDLLTTSRSTPGELVMCQEKLVQEAVDTLLDNGIRGQPMRDGHNKVYKSFSDVIEGKEGRFRETLLGKRVDYSGRSVIVVGPSLSLHRCGLPREIAIELFQTFVIRGLIRQHLASNIGVAKSQIREKKPIVWEILQEVMQGHPVLLNRAPTLHRLGIQSFQPILVEGRTICLHPLVCKGFNADFDGDQMAVHVPLSLEAQAEARLLMFSHMNLLSPAIGDPISVPTQDMLIGLYVLTSGTRRGICANRYNPCNRKNYQNERIYETNYKYMKEPFFCNSYDAIGAYRQKRINLDSPLWLRWQLDQRVIASKEVPIEVHYESFGNYHEIYAHYLIVRSVKKETLYIYIRTTVGHISLYREIEEAIQGFSQACSYDT"}},
  "target": "T1, β subunit of the plastid-encoded RNA polymerase (SaRpoB) (Sinapis alba (endogenous in cotyledon chloroplasts)) (UniProt P46818)",
  "T1 sequence": "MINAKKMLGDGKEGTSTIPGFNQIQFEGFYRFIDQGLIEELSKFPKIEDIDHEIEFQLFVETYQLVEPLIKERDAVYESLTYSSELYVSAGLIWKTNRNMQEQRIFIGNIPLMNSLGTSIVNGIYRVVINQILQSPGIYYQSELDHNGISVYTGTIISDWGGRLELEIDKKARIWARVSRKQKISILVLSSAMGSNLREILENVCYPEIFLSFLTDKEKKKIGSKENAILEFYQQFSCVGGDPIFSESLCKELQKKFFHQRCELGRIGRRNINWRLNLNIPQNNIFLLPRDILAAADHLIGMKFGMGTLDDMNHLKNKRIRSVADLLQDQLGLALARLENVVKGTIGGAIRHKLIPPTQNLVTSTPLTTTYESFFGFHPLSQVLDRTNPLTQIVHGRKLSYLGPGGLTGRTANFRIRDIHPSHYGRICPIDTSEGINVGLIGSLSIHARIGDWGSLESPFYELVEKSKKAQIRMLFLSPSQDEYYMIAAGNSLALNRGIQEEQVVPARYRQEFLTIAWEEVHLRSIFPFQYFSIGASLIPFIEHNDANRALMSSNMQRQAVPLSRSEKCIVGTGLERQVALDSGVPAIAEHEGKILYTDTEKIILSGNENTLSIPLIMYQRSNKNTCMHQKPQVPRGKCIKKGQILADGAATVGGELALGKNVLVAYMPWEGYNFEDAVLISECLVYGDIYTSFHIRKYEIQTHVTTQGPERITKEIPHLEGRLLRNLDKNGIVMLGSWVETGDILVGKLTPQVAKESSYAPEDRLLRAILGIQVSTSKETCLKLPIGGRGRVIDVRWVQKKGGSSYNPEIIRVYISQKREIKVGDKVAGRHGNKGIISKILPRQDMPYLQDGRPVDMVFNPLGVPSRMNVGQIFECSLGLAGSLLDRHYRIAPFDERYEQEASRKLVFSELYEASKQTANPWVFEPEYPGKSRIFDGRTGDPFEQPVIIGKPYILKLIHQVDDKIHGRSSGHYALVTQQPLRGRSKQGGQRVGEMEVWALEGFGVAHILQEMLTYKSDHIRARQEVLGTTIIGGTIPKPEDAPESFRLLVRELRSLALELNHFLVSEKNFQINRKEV",
  "experiment": "cross-linking; PEP-enriched fraction from two independent purifications (replicates 2 and 3), a few micrograms, 100 µM DSBU, 1 h at room temperature, HEPES buffer pH 7.8; trypsin; nanoLC-MS/MS; MeroX 2.0, FDR cut-off 1%, minimum score 30; the partners were together in the native complex fraction",
  "note": "These are yes or no findings as the source states them, for the method shown. Binding seen in cells or lysates may run through a third protein. Some results given as binding are weak or reduced against the parent protein; the word gives no strength.",
  "data": [
    {"binder": "B1", "values": [
      {"measurement": "binding", "value": "binds"}
    ]}
  ]
}
